Source: publication doi:10.1101/2022.06.21.497044 (bioRxiv, 2022)
These are yes or no findings as the source states them, for the method shown. For some of these results: Binding seen in cells or lysates may run through a third protein. Some binding calls cover weakened binding; strength is not graded here. Tags and fused reporters may be left off the sequences shown.

T1: ABSCISIC ACID …5 (ABI5), full length, fused to the GAL4 DNA-binding domain (pGBKT7) (Arabidopsis thaliana) (UniProt Q9SJN0)
T1 sequence: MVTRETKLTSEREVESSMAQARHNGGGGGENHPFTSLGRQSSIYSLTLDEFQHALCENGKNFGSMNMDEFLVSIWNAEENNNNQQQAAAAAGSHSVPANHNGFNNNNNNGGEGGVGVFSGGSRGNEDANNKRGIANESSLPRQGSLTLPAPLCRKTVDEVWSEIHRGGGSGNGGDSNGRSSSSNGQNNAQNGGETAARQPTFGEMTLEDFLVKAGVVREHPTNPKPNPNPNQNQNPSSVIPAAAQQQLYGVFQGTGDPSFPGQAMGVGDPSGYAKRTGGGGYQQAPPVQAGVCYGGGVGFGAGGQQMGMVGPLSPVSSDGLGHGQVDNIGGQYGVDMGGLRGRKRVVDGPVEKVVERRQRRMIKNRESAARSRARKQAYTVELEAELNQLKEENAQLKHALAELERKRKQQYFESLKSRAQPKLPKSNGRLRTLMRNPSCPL

T2: ABI5, full length, fused to the N-terminal half of YFP (pCL112) (Arabidopsis thaliana) (UniProt Q9SJN0)
T2 sequence: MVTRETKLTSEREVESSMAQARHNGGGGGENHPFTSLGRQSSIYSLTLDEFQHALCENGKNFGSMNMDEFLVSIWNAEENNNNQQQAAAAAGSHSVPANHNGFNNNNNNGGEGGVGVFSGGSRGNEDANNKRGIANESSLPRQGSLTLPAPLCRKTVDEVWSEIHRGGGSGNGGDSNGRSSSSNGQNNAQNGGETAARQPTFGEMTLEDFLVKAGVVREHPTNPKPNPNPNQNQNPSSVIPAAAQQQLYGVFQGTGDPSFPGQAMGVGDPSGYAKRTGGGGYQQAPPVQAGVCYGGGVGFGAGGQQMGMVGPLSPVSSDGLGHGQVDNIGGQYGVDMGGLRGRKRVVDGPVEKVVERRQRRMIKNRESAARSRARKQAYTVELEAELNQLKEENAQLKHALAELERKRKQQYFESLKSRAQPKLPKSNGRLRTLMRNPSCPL

B1: miP1b/BBX30, full length, fused to the GAL4 activation domain (pGADT7) (protein, UniProt Q1G3I2 1-117)
chain: MCRGFEKEEERRSDNGGCQRLCTESHKAPVSCELCGENATVYCEADAAFLCRKCDRWVHSANFLARRHLRRVICTTCRKLTRRCLVGDNFNVVLPEIRMIARIEEHSSDHKIPFVFL
B2: miP1a/BBX31, full length, fused to the GAL4 activation domain (pGADT7) (protein, UniProt Q9LRM4 1-121)
chain: MCRGLNNEESRRSDGGGCRSLCTRPSVPVRCELCDGDASVFCEADSAFLCRKCDRWVHGANFLAWRHVRRVLCTSCQKLTRRCLVGDHDFHVVLPSVTTVGETTVENRSEQDNHEVPFVFL
B3: YFPc-BBX30 (protein, UniProt Q1G3I2 1-117)
chain: MCRGFEKEEERRSDNGGCQRLCTESHKAPVSCELCGENATVYCEADAAFLCRKCDRWVHSANFLARRHLRRVICTTCRKLTRRCLVGDNFNVVLPEIRMIARIEEHSSDHKIPFVFL
B4: YFPc-BBX31 (protein, UniProt Q9LRM4 1-121)
chain: MCRGLNNEESRRSDGGGCRSLCTRPSVPVRCELCDGDASVFCEADSAFLCRKCDRWVHGANFLAWRHVRRVLCTSCQKLTRRCLVGDHDFHVVLPSVTTVGETTVENRSEQDNHEVPFVFL

Columns and labels:
[1] = target: T1, ABSCISIC ACID …5 (ABI5), full length, fused to the GAL4 DNA-binding domain (pGBKT7) (Arabidopsis thaliana); experiment: two-hybrid
[2] = target: T2, ABI5, full length, fused to the N-terminal half of YFP (pCL112) (Arabidopsis thaliana); experiment: split reporter

| Binder | binding [1] | binding [2] |
| --- | --- | --- |
| B1 | binds | – |
| B2 | binds | – |
| B3 | – | binds |
| B4 | – | binds |
